Binding data for two substances are collected here from publication PMC3917433.

The chains behind the UniProt entries cited, without tags or fusion partners.
UniProt P13202: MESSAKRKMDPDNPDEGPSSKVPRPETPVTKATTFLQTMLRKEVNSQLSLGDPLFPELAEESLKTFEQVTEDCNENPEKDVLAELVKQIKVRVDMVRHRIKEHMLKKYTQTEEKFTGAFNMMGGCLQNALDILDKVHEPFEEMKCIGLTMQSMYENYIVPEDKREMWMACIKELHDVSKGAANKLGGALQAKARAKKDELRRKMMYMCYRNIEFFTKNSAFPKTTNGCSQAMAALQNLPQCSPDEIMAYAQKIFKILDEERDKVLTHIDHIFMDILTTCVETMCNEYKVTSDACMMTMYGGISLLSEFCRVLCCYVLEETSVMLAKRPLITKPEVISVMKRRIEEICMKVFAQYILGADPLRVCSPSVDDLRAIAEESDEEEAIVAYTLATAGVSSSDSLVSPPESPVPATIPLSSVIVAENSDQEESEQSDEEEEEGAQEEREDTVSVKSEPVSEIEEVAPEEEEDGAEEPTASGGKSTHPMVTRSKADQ
UniProt P52756: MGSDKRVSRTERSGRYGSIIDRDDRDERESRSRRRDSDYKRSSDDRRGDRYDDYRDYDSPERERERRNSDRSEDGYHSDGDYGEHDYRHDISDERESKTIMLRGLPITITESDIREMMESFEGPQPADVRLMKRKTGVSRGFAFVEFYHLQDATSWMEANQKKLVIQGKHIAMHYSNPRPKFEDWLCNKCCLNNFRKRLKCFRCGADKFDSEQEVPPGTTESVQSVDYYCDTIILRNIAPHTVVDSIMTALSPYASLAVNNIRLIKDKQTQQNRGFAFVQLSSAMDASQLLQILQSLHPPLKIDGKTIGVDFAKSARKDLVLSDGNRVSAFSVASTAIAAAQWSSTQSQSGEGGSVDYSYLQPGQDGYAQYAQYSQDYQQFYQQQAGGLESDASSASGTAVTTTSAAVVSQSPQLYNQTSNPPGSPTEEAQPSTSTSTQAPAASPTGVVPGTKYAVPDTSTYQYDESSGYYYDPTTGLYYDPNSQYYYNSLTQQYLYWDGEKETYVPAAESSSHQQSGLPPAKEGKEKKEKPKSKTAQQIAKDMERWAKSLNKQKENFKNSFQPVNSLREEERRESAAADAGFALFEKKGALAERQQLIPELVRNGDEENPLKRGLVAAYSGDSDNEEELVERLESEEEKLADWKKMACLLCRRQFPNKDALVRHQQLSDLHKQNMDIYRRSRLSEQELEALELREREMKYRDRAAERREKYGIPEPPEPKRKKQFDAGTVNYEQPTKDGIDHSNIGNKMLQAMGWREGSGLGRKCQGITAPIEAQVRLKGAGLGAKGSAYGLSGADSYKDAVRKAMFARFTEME
UniProt P98175: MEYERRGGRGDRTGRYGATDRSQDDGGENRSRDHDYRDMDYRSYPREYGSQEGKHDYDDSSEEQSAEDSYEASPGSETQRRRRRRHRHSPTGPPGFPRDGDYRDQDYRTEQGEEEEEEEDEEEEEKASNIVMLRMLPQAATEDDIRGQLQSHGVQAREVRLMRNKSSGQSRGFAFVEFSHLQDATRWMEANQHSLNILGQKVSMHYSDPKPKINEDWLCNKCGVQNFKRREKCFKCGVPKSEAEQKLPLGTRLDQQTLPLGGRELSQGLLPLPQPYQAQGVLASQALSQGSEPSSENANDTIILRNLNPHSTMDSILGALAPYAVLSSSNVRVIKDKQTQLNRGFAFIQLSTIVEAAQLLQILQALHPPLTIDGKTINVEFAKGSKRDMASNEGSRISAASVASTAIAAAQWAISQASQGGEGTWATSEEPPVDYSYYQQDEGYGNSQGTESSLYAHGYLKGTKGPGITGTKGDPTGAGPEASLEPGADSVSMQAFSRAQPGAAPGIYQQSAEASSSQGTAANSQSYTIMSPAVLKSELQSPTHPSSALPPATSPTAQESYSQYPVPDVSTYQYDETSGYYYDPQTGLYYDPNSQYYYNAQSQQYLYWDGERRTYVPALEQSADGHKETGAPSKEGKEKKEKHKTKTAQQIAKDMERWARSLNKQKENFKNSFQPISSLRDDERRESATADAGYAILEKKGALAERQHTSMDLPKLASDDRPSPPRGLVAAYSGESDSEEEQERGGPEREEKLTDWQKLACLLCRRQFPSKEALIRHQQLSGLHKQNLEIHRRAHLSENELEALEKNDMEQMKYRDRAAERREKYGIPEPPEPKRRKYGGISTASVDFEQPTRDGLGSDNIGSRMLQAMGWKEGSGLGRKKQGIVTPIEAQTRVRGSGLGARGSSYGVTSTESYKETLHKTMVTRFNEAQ

This assay deals with Human cytomegalovirus immediate-early protein 1 (human cytomegalovirus (HCMV)) (UniProt P13202). The assay can be described thus: co-IP.

No constants are given. Whether binding was seen depends on the method and setting. Binding seen in cells or lysates may run through a third protein. Some entries that bind do so weakly or less than the wild type.

On to RBM5 (from UniProt P52756 1-815), for which the binding result was “binds”.

For the substance RBM 10 (from UniProt P98175 1-930), the binding result is reported as “binds”.
